Literature values as cited in paper PMC11651071 (International Journal of Nanomedicine, 2024).

Settings: cited from earlier work

## COc1cc(/C=C/C(=O)CC(=O)/C=C/c2ccc(O)c(OC)c2)ccc1O [CU, Curcumin]
  Water solubility: approximately 0.125 mg/L
